Experiment [1] deals with T1, (His)10-GST-tagged B. subtilis ScpA^N (BsScpA^N) (Bacillus subtilis) (UniProt P35154).
T1 sequence: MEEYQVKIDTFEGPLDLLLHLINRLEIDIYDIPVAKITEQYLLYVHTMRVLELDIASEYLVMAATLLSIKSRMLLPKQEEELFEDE
The experiment is described as follows: pull-down; (His)10 pull-down on Ni-NTA resin; (His)10-GST-ScpA^N held, SmcHd-CC in a 1:1 molar ratio (20 µM); wash with 30 mM imidazole; SDS-PAGE; both purified.

The target of experiment [2] is T2, (His)10-MBP-tagged Methanothrix soehngenii ScpA (Methanothrix soehngenii) (UniProt F4BYM3).
T2 sequence: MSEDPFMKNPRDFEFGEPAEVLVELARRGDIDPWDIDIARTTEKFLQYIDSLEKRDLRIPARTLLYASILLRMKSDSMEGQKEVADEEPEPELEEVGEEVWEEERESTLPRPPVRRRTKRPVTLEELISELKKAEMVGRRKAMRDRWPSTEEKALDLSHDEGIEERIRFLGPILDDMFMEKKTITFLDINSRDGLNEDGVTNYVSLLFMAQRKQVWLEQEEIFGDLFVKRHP
The experiment is described as follows: SEC; mixture of (His)10-MBP-tagged ScpA and ScpB homologue on Superdex 200 Increase 10/300 GL; 20 mM Tris-HCl pH 7.5, 100 mM NaCl, 1 mM DTT, 4°C; 10 µM each in 100 µl; both purified.

Experiment [3] addresses T2, (His)10-MBP-tagged Methanothrix soehngenii ScpA (Methanothrix soehngenii). As to the kind of experiment: pull-down; (His)10 pull-down on Ni-NTA resin; (His)10-MBP-tagged ScpA held, untagged putative ScpB, 1 µM each; 20 mM Tris-HCl pH 7.5, 100 mM NaCl, 25°C, 10 min; wash with 30 mM imidazole; denaturing PAGE; both purified.
For experiment [4], the target named is (His)10-MBP-tagged Methanosalsum zhilinae ScpA (Methanosalsum zhilinae). The description is as above.
The target is the same in experiment [5]. As to the kind of experiment: SEC; mixture of (His)10-MBP-tagged ScpA and ScpB homologue on Superdex 200 Increase 10/300 GL; 20 mM Tris-HCl pH 7.5, 100 mM NaCl, 1 mM DTT, 4°C; 10 µM each in 100 µl; both purified.
The target in experiment [6] is (His)10-MBP-tagged Methanofollis liminatans ScpA (MlScpA) (Methanofollis liminatans). As to the kind of experiment: pull-down; (His)10 pull-down on Ni-NTA resin; (His)10-MBP-tagged ScpA held, untagged putative ScpB, 1 µM each; 20 mM Tris-HCl pH 7.5, 100 mM NaCl, 25°C, 10 min; wash with 30 mM imidazole; denaturing PAGE; both purified.
Experiment [7] shares this target. The experiment is described as follows: SEC; mixture of (His)10-MBP-tagged ScpA and ScpB homologue on Superdex 200 Increase 10/300 GL; 20 mM Tris-HCl pH 7.5, 100 mM NaCl, 1 mM DTT, 4°C; 10 µM each in 100 µl; both purified.

No constants are given. Whether binding was seen depends on the method and setting. For some of these results: Binding calls can cover weak binding; strength is not graded here. Sequences can lack the tags named with a protein.

As to “B. subtilis Smc head domain with a 30-residue coiled-coil stretch (BsSmcHd-CC30) (Bacillus subtilis) (domain or fragment)”, the binding result in experiment [1] is “binds”.

For the molecule “MCON_2432 (putative Methanothrix soehngenii ScpB), untagged”, the binding result in experiment [2] is on record as “no binding (tested: 10 µM each)”; in experiment [3] it was “no binding (tested: 1 µM each)”.

B1: Mzhil_1996 (putative Methanosalsum zhilinae ScpB), untagged (protein, UniProt F7XKW0 1-364)
chain: MNHKEIVEAALFVAGDGVNIKSLAKIVNIPEKNVIDTVRSLMEEYSSRETGLEIVETGEKRYVMQVKPRYSDIVSRLAPGEIKSPVLRTLSMIAYHQPIAQSELVDIRGNSVYEHIRELKDRGLVNAAPHGRTRILQTTPLFAEYFGIDSNDPESIRKKIIELSRKQSGSVGLDRWLGRRVVAITPMYESLMEMCGIEDYRVLNVYSPDEDELDSLADVYRLIVSRGYSEQVSRYYDGEIIEIGSTTFNDLIDSIQSLEDIYDSDKARESIEKIKELRERYVSKAMVIDRKVKPATDMISRIVSDLHIGVSSTGVVIAPDYGVSSNGVDVSHDARILVPTHEKEGSLIERVCRKYDAVIDGLKE
As to B1, the figures for the binding result in experiment [4] and in experiment [5] were “no binding (tested: 1 µM each)” and “no binding (tested: 10 µM each)”, respectively.

B2: Metli_0606 (sole ScpB homologue of Methanofollis liminatans), untagged (natural protein, UniProt J1ANV5 1-161, looked up)
chain: MVDRTAMLEAALFVADAPVSYGDLAKIFGIKPGEVPALAQELSGRLSARSSPLEVIDSGESVFMVLKEEYAVLVYPVMRPEISRAVLRTLSVIAYRQPILQSDLIEIRGGGAYAHVEELVKRDLVARYRSGRSYLLQTTPEFSRYFKTSDLVGGQGRLDID
notes: ScpB homologue Metli_0606 of Methanofollis liminatans; untagged in the assays; also called ScpB homologue Metli_0606; source: E. coli BL21 (DE3) RIPL, purified
As for B2, the binding result is “no binding (tested: 1 µM each)” in experiment [6] and “no binding (tested: 10 µM each)” in experiment [7].
